Measured values: PMC4065374
These are yes or no findings as the source states them, for the method shown. Tags and fused reporters may be left off the sequences shown.

Biological target: T1, His-tagged Aeromonas caviae flagellin-specific chaperone FlaJ (His-FlaJ) (Aeromonas caviae) (UniProt Q9R9R5)
T1 sequence: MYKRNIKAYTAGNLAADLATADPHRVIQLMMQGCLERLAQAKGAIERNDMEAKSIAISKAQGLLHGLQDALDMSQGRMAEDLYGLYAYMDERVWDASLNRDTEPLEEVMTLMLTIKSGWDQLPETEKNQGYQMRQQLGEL
Assay: far-Western, overlay or dot blot; purified proteins resolved by SDS-PAGE and blotted; membrane incubated in PBS with purified GST or GST-FlaJ at 0.01 mg ml^−1; detected with αGST-HRP conjugate and ECL; both purified

B1: GST-tagged Aeromonas caviae flagellin-specific chaperone FlaJ (GST-FlaJ) (protein, UniProt Q9R9R5 1-140)
chain: MYKRNIKAYTAGNLAADLATADPHRVIQLMMQGCLERLAQAKGAIERNDMEAKSIAISKAQGLLHGLQDALDMSQGRMAEDLYGLYAYMDERVWDASLNRDTEPLEEVMTLMLTIKSGWDQLPETEKNQGYQMRQQLGEL
binding: no binding (tested: 0.01 mg ml^−1)
